From the supplement of paper PMC8728848
The list shows a part of the results.

Columns and labels:
Assay in all cases: glycan array binding signal (z-score within array); higher = stronger binding
Conditions in all cases: glycan notation: IUPAC condensed, linker removed; mutation: D224N
[1] = biological target: Gal(b1-4)GalNAc(b1-3)[Fuc(a1-2)]Gal(b1-4)GlcNAc
Outline: (§1)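 Glycan array binding is given as a within-array Z-score, which can be read as non-binding when negative. The arrays, 3228 of them, came from the Consortium for Functional Glycomics database and were retained only where the protein sequence was available. Z-scores were averaged across arrays of the same protein sequence at different concentrations or buffers and across linkers.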

Gal(b1-4)Glc = biological target: Gal(b1-4)Glc
Outline: as §1

Gal(b1-4)Glc6S = biological target: Gal(b1-4)Glc6S
Outline: as §1

Gal(b1-4)GlcNAc = biological target: Gal(b1-4)GlcNAc
Outline: as §1

[2] = biological target: Gal(b1-4)GlcNAc(a1-6)Gal(b1-4)GlcNAc
Outline: as §1

Gal(b1-4)GlcNAc(b1-2)Man = biological target: Gal(b1-4)GlcNAc(b1-2)Man
Outline: as §1

[3] = biological target: Gal(b1-4)GlcNAc(b1-2)Man(a1-3)Man(b1-4)GlcNAc(b1-4)GlcNAc
Outline: as §1

[4] = biological target: Gal(b1-4)GlcNAc(b1-2)Man(a1-3)[Gal(b1-4)GlcNAc(b1-2)Man(a1-6)]Man(b1-4)GlcNAc(b1-4)GlcNAc
Outline: as §1

[5] = biological target: Gal(b1-4)GlcNAc(b1-2)Man(a1-3)[Gal(b1-4)GlcNAc(b1-2)Man(a1-6)]Man(b1-4)GlcNAc(b1-4)[Fuc(a1-6)]GlcNAc
Outline: as §1

[6] = biological target: Gal(b1-4)GlcNAc(b1-2)Man(a1-3)[Gal(b1-4)GlcNAc(b1-2)Man(a1-6)][Gal(b1-4)GlcNAc(b1-4)]Man(b1-4)GlcNAc(b1-4)[Fuc(a1-6)]GlcNAc
Outline: as §1

[7] = biological target: Gal(b1-4)GlcNAc(b1-2)Man(a1-3)[Gal(b1-4)GlcNAc(b1-2)Man(a1-6)][GlcNAc(b1-4)]Man(b1-4)GlcNAc(b1-4)[Fuc(a1-6)]GlcNAc
Outline: as §1

[8] = biological target: Gal(b1-4)GlcNAc(b1-2)Man(a1-3)[GlcNAc(b1-2)Man(a1-6)]Man(b1-4)GlcNAc(b1-4)GlcNAc
Outline: as §1

[9] = biological target: Gal(b1-4)GlcNAc(b1-2)Man(a1-3)[GlcNAc(b1-4)][Gal(b1-4)GlcNAc(b1-2)Man(a1-6)]Man(b1-4)GlcNAc(b1-4)GlcNAc
Outline: as §1

[10] = biological target: Gal(b1-4)GlcNAc(b1-2)Man(a1-3)[Man(a1-6)]Man(b1-4)GlcNAc(b1-4)GlcNAc
Outline: as §1

[11] = biological target: Gal(b1-4)GlcNAc(b1-2)Man(a1-6)Man(b1-4)GlcNAc(b1-4)GlcNAc
Outline: as §1

[12] = biological target: Gal(b1-4)GlcNAc(b1-2)Man(a1-6)[GlcNAc(b1-2)Man(a1-3)]Man(b1-4)GlcNAc(b1-4)GlcNAc
Outline: as §1

[13] = biological target: Gal(b1-4)GlcNAc(b1-2)Man(a1-6)[Man(a1-3)]Man(b1-4)GlcNAc(b1-4)GlcNAc
Outline: as §1

[14] = biological target: Gal(b1-4)GlcNAc(b1-2)[Gal(b1-4)GlcNAc(b1-4)]Man(a1-3)[Gal(b1-4)GlcNAc(b1-2)Man(a1-6)]Man(b1-4)GlcNAc(b1-4)GlcNAc
Outline: as §1

B1: a L Fucosidase (Thermotoga maritima) (protein)
chain: MASMKPRYKPDWESLREHTVPKWFDKAKFGIFIHWGIYSVPGWATPTGELGKVPMDAWFFQNPYAEWYENSLRIKESPTWEYHVKTYGENFEYEKFADLFTAEKWDPQEWADLFKKAGAKYVIPTTKHHDGFCLWGTKYTDFNSVKRGPKRDLVGDLAKAVREAGLRFGVYYSGGLDWRFTTEPIRYPEDLSYIRPNTYEYADYAYKQVMELVDLYLPDVLWNNMGWPEKGKEDLKYLFAYYYNKHPEGSVNDRWGVPHWDFKTAEYHVNYPGDLPGYKWEFTRGIGLSFGYNRNEGPEHMLSVEQLVYTLVDVVSKGGNLLLNVGPKGDGTIPDLQKERLLGLGEWLRKYGDAIYGTSVWERCCAKTEDGTEIRFTRKCNRIFVIFLGIPTGEKIVIEDLNLSAGTVRHFLTGERLSFKNVGKNLEITVPKKLLETDSITLVLEAVEE
- glycan array binding signal (z-score) [1]: -0.269
- glycan array binding signal (z-score) (Gal(b1-4)Glc): 0.336
- glycan array binding signal (z-score) (Gal(b1-4)Glc6S): 0.376
- glycan array binding signal (z-score) (Gal(b1-4)GlcNAc): -0.016
- glycan array binding signal (z-score) [2]: -1.19
- glycan array binding signal (z-score) (Gal(b1-4)GlcNAc(b1-2)Man): 0.466
- glycan array binding signal (z-score) [3]: -1.08
- glycan array binding signal (z-score) [4]: -0.816
- glycan array binding signal (z-score) [5]: -0.322
- glycan array binding signal (z-score) [6]: -0.947
- glycan array binding signal (z-score) [7]: -0.424
- glycan array binding signal (z-score) [8]: -0.47
- glycan array binding signal (z-score) [9]: 0.163
- glycan array binding signal (z-score) [10]: -0.138
- glycan array binding signal (z-score) [11]: -0.592
- glycan array binding signal (z-score) [12]: -0.419
- glycan array binding signal (z-score) [13]: 0.706
- glycan array binding signal (z-score) [14]: -0.104
